Measurements reported in PubChem BioAssay AID1508597 (Cure First, 2020)

- Aim: 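Genes whose silencing sensitises or protects ovarian cancer cells against rucaparib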 (primary screen)
- Cells: human ovarian carcinoma lines grown from tumours: OCI-P5x (papillary serous) and OCI-C5x (clear cell)
- Knock-down reagent: siRNA pool against human genes, 1.25 pmol siRNA per well
- Duration: 72 h or 96 h, depending on the cell culture
- Conditions: rucaparib 20 µM (about IC30) or vehicle, present until read-out
- Rucaparib or vehicle: Rucaparib
- Cell line: OCI-C5x (clear cell)
- Read-out: 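ATP luminescence measured at 72 or 96 h according to the culture, then normalised and expressed as percent viability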
- Scale: viability, normalised: higher = more viable cells remaining
- Hit rule: 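a well counts as a hit if its normalised viability is under 80 percent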
- Calls: active = viability under 80%; inactive = viability 80% or more
Shown is a random part of the about 2,100 reagents, under one of the conditions tested. 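Calls flag viability under 80% in either arm, not effects specific to rucaparib; the reference for percent is not stated.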 A number with no mark means an inactive call. A reagent listed more than once was tested more than once; the source does not tell the runs apart. The record does not give: the 100% reference.

gene | technical replicate | viability, normalised (%)
MATK | 1 | 50.2 (active)
MATK | 1 | 60.4 (active)
MATK | 2 | 76.3 (active)
MATK | 2 | 59.4 (active)
MATK | 3 | 66.1 (active)
MATK | 3 | 60.6 (active)
CSMD3 | 1 | 64.1 (active)
CSMD3 | 2 | 67.7 (active)
CSMD3 | 3 | 72.4 (active)
SND1 | 1 | 47.4 (active)
SND1 | 2 | 51.4 (active)
SND1 | 3 | 49.4 (active)
HIRIP3 | 1 | 80.7
HIRIP3 | 2 | 42.3 (active)
HIRIP3 | 3 | 43 (active)
TRIM16 | 1 | 74.5 (active)
TRIM16 | 2 | 57.8 (active)
TRIM16 | 3 | 44.5 (active)
ERCC2 | 1 | 69.1 (active)
ERCC2 | 1 | 50.8 (active)
ERCC2 | 2 | 51.9 (active)
ERCC2 | 2 | 65.8 (active)
ERCC2 | 3 | 63.5 (active)
ERCC2 | 3 | 58.2 (active)
NEK11 | 1 | 47.9 (active)
NEK11 | 2 | 46.9 (active)
NEK11 | 3 | 50.5 (active)
SREBF1 | 1 | 74.5 (active)
SREBF1 | 2 | 64.6 (active)
SREBF1 | 3 | 45 (active)
CHMP2A | 1 | 39.6 (active)
CHMP2A | 2 | 34.5 (active)
CHMP2A | 3 | 32.5 (active)
RPS6KA5 | 1 | 49.8 (active)
RPS6KA5 | 2 | 63.9 (active)
RPS6KA5 | 3 | 47.5 (active)
PRDM5 | 1 | 28.6 (active)
PRDM5 | 2 | 27.4 (active)
PRDM5 | 3 | 27 (active)
MAST1 | 1 | 57.9 (active)
MAST1 | 2 | 46.9 (active)
MAST1 | 3 | 45.6 (active)
PIK3R4 | 1 | 53.8 (active)
PIK3R4 | 2 | 53.7 (active)
PIK3R4 | 3 | 37.5 (active)
EYA2 | 1 | 40 (active)
EYA2 | 2 | 28.5 (active)
EYA2 | 3 | 28.7 (active)
CDK15 | 1 | 44.4 (active)
CDK15 | 2 | 74.3 (active)
CDK15 | 3 | 43.8 (active)
PIK3R1 | 1 | 54.1 (active)
PIK3R1 | 2 | 45.2 (active)
PIK3R1 | 3 | 34.4 (active)
SOX15 | 1 | 32.1 (active)
SOX15 | 2 | 39.4 (active)
SOX15 | 3 | 46.7 (active)

Targets listed so far whose target name begins with R or r:
gene | technical replicate | viability, normalised (%)
RPS6KA5 | 1 | 49.8 (active)
RPS6KA5 | 2 | 63.9 (active)
RPS6KA5 | 3 | 47.5 (active)
